# Reference: PubChem BioAssay AID1487 (National Center for Advancing Translational Sciences (NCATS), 2009)
# Several values for one entry are separate records, joined by “and”; a condition that tells them apart may be missing. Identical values can stand only once. Some of the results follow. Further columns of the screen follow, without active or inactive calls. The list favours compounds with an active or inconclusive main result. Words in brackets tell the shape of the fitted curve; partial curves, single points and poor fits give uncertain potencies.
# Assay: qHTS Assay for Modulators of Lamin A Splicing
# Conditions: HeLa LMNA splicing GFP/RFP minigene ratio, 48 h
# Source text: NCGC Assay Overview: Hutchinson-Gilford Progeria Syndrome (HGPS) is a pediatric premature aging disease caused by a spontaneous mutation in the lamin A/C (LMNA) gene. The mutation activates a cryptic splice site in the LMNA pre-mRNA which results in production of a pre-lamin A protein that cannot be processed properly. The mutant protein accumulates in the nucleus and negatively affects numerous cellular functions. Correction of the splicing defect in HGPS patient cells using a targeted oligonucleotide (exo11) leads to reversal of the cellular disease phenotypes. To identify small molecule modulators of aberrant LMNA splicing, a homogenous assay was constructed in HeLa cells that used a GFP containing minigene to report on correction of aberrant splicing in lamin A and a RFP (DsRed2) to report on cell viability, uniformity and nonspecific effects on the assay signal. This assay was adapted to laser-scanning microplate cytometry (Acumen, TTP Labtech) where miniaturization of the assay to a 1,536-well plate format was possible. References: Bowen, W. P.; Wylie, P. G. Application of Laser-Scanning Fluorescence Microplate Cytometry in High Content Screening. Assay Drug Dev Technol 2006;4:209-221. Scaffidi P, Misteli T. Reversal of the cellular phenotype in the premature aging disease Hutchinson-Gilford progeria syndrome. Nat.
# NCGC Assay Protocol Summary: Reagents/Controls: Stable clones expressing DsRed2 and lamin A-EGFP were generated by Cell and Molecular Technologies in S3 HeLa cells. HeLa cells were prepared for the assay when they were 70-90% confluent. The cells were counted and resuspended in Opti-MEM I (no phenol red; Gibco), 2% FBS, 1% penicillin/ streptomycin (Gibco) at concentration of 120 cells/uL concentration. The suspension was passed through a Falcon basket filter with pore size 40um (Beckton Dickson). Control titrations: column […] 1536-well plate contained a sixteen point titration (1:2 dilutions) in duplicate of ancitabine (Sigma: A8598) beginning at 40 uM final concentration. Column 2 contained a sixteen point titration (1:2 dilutions) of cycloheximide beginning at 1.4 mM final concentration. Column 3 contained ancitabine at 40 uM and column 4 contained was the vehicle control (0.5% DMSO final concentration). Assay Steps: 5 uL of HeLa cells were plated in Aurora LoBase black clear bottom (cyclic-olefin polymer) 1536-well plates at a final density of 600 cells/well. Controls and library compounds were added with a 1536-well pin array using the Kalypsys pin-tool. The plates were then incubated for 48 hrs in a cell-culture incubator (37 °C; 5% CO2, 98% humidity). Following incubation the plates were read on the Acumen Explorer using the 488 nm laser. Data was collected on objects between 10 and 100 um in size. Cell objects were defined by a 15 um width x 10 um depth filter. The ratio of the total object intensity in PMT1 (500-530 nm emission; GFP) over PMT3 (575-640 nm emission; RFP) was calculated for analysis. Keywords: NIH Roadmap, MLSCN, MLI, MLSMR, qHTS, NCGC, lamin A, Progeria, RNA splicing.
# [1] = measured here: RFP viability control channel
# [2] = measured here: GFP splicing reporter channel
Compound,AC50 [1],AC50 [2]
Cc1ccc(NC(=O)Cn2c(=O)oc3ccccc32)cc1C,"1.12 µM [falling, full curve]",
CN(C)[C@@H]1C(=O)C(C(N)=O)=C(O)[C@@]2(O)C(=O)C3=C(O)c4c(O)cccc4[C@@](C)(O)[C@H]3[C@H](O)[C@@H]12,"0.000794 µM [rising, full curve, poor fit]",
CCOC(=O)C(NC(C)=O)C(OC(C)=O)c1cccc(N(CCCl)CCCl)c1 (stereo not given),"12.6 µM [rising, single point]",
CN(C(=O)CNC(=O)OCc1ccccc1)c1ccc(Br)cc1C(=O)c1ccccc1Cl,"20 µM [rising, single point]",
CN1C(=O)CCS(=O)(=O)C1c1ccc(Cl)cc1 (stereo not given),"35.5 µM [falling, single point] and 5.62 µM [falling, single point]","35.5 µM [falling, single point]"
O=C(CSC1c2ccccc2-c2ccccc21)N/N=C/c1ccccc1C(=O)O,"0.447 µM [falling, partial curve]",
C[C@]12C=CC(=O)C=C1CC[C@@H]1C2CC[C@]2(C)OC(=O)CCC12 (stereo not given in full),"35.5 µM [falling, single point]","1.58 µM [falling, partial curve, poor fit]"
Cc1nc2c(C(=O)N3CCC4(CC3)OCCO4)cnn2c(C)c1Cc1cccc(Cl)c1,,"3.16 µM [rising, single point]"
N#CSCC(=O)N1c2ccccc2CCc2ccccc21,"28.2 µM [rising, single point]",
CNC1CC(N)[C@H](O)[C@@H](O[C@@H]2OC(CO)C3OC4(OC(C(N)CO)C(O)C(O)C4O)O[C@@H]3[C@H]2O)C1O (stereo not given in full),"0.708 µM [rising, full curve]","14.1 µM [rising, partial curve]"
COc1cccc(N2C(=O)NC(=O)/C(=C\c3ccc([N+](=O)[O-])s3)C2=O)c1,"0.00891 µM [rising, full curve, poor fit]",
Cc1c(C=O)c2ccccc2n1Cc1ccc([N+](=O)[O-])cc1,"17.8 µM [rising, single point]","12.6 µM [rising, single point]"
O=C(O)[C@@H]1CCN1,"5.62 µM [falling, single point]","0.01 µM [falling, full curve, poor fit]"
CCN(CC)C(=O)N[C@@H]1C[C@H]2c3cccc4[nH]cc(c34)C[C@@H]2N(C)C1,"3.16 µM [falling, single point]",
Cc1cccc(CN2CC=C(c3noc(CCC(=O)Nc4ccc(C)c(F)c4)n3)CC2)c1,"0.708 µM [falling, single point]",
COC(=O)[C@@H]1[C@@H](C(=O)OC)C2(c3ccccc3-c3ccccc32)N(c2ccc(Cl)cc2)N1C#N,,"3.16 µM [falling, single point]"
COc1ccc(C[C@@H]2NC[C@H](O)[C@@H]2OC(C)=O)cc1,"0.0631 µM [falling, full curve]","0.0708 µM [falling, full curve]"
COc1ccc(NC(=O)c2sc3nc4c(cc3c2N)N2CCC4CC2)cc1OC,,"11.2 µM [falling, partial curve, poor fit]"
Cc1ccc(-n2c(/C=C\c3ccc(F)cc3)nc3ccccc3c2=O)cc1Cl,"0.0126 µM [rising, full curve, poor fit]",
CC(Oc1ccccc1)C(=O)Nc1ccc(C(=O)OCc2cc(=O)n3nc(C4CC4)sc3n2)cc1 (stereo not given),"2.24 µM [rising, partial curve, poor fit]","2 µM [falling, partial curve]"
COc1ccc(CCn2c(O)c(C=NCCCO)c(=O)[nH]c2=O)cc1OC,"5.62 µM [rising, single point]",
O=C(c1cc(C(=O)NCc2ccccc2)c(=O)n(Cc2ccccc2)c1)c1cc(Cl)ccc1O,"17.8 µM [rising, partial curve]",
CN1[C@@H](CC(=O)c2ccccc2)CCC[C@H]1C[C@H](O)c1ccccc1,"0.631 µM [rising, full curve, poor fit]","708 nM [falling, single point] and 3.98 nM [rising, full curve, poor fit]"
N#CC1=C(N)Oc2c(c(=O)oc3ccccc23)C1c1ccccc1OC(=O)c1cccs1 (stereo not given),"35.5 µM [falling, single point]","15.8 µM [falling, partial curve]"
CC(C)CCC1(CN2CCCC2=O)C(=O)NC(=O)NC1=O,"35.5 µM [falling, partial curve, poor fit]",

Compound,AC50 [1],AC50 [2]
COc1ccc(/C=N/N=C(/N)N[N+](=O)[O-])c(OC)c1,"1.26 µM [falling, full curve, poor fit]",
Cc1cccc(N(C)S(=O)(=O)c2cc(-c3cnc(C4CC4)o3)ccc2C)c1,"14.1 µM [rising, single point]","12.6 µM [rising, single point]"
O=C1NC(=O)N(Cc2ccco2)C(=O)/C1=C/c1cccn1CCOc1ccccc1Cl,"22.4 µM [falling, partial curve, poor fit]","25.1 µM [falling, partial curve, poor fit]"
COC(=O)NC(=S)Nc1ccccc1NC(=S)NC(=O)OC,"35.5 µM [rising, single point]","22.4 µM [rising, single point]"
CC(C)(C)NC[C@H](O)c1cc(Cl)c(N)c(Cl)c1,"0.00501 µM [falling, full curve, poor fit]","0.00224 µM [falling, full curve, poor fit]"
CCN1C[C@]2(COC)[C@H](O)C[C@H](OC)[C@]34C1C([C@H](OC)[C@H]23)[C@]1(OC(C)=O)C2[C@@H](OC(=O)c3ccccc3)C(O)(C[C@H]24)[C@@H](OC)[C@@H]1O,"11.2 µM [falling, single point]","15.8 µM [falling, single point]"
CC(C)c1oc(=O)cc2c1[C@@H](O)[C@H]1OC(=O)[C@@]3(C)CC[C@@H](O)[C@@]2(C)C13 (stereo not given in full),"15.8 µM [rising, partial curve]",
C[N+]1=C(/C=C/Nc2ccccc2)C(C)(C)c2ccccc21,"20 µM [rising, single point]",
CCOP(=S)(OCC)Oc1ccc2c(C)c(Cl)c(=O)oc2c1,"0.000794 µM [rising, full curve, poor fit]",
O=C(COc1ccc(Br)cc1)N1CCN(Cc2c[nH]c3ccccc23)CC1,,"14.1 µM [falling, single point]"
Cc1ccc(Cl)cc1NC(=O)N(Cc1ccc2c(c1)OCO2)C1CCN(Cc2ccccc2)CC1,,"5.62 µM [falling, partial curve]"
Cc1c(C(=O)N2CCC3(CC2)OCCO3)sc2ncnc(N3CCN(c4ccccn4)CC3)c12,"31.6 µM [rising, single point]",
Cc1ccc(CNC(=O)c2ccccc2NC(=O)c2nsc3ccccc23)cc1,"11.2 µM [falling, partial curve]","11.2 µM [falling, partial curve]"
COc1ccc(CC(=O)NC(=S)NNC(=O)COc2c(C)cccc2C)cc1,"22.4 µM [rising, partial curve]","3.55 µM [rising, partial curve, poor fit]"
C[C@]12CC[C@H]3[C@@H](CCC4C[C@H](O)CC[C@@]43C)[C@@H]1CC[C@@H]2O (stereo not given in full),"0.00398 µM [falling, full curve, poor fit]",
COc1ccc(N/N=C/c2c(O)n(-c3ccc(C)c(C)c3)c(=O)[nH]c2=O)cc1,"14.1 µM [rising, partial curve]","11.2 µM [rising, partial curve]"
CC1=NN=C(c2ccc(N)cc2)c2cc3c(cc2C1)OCO3,"4.47 µM [falling, partial curve, poor fit]",
C=CC[C@]1(O)CCC2C3CCC4=CCCCC4C3CCC21C (stereo not given in full),"0.708 µM [falling, single point]",
Cc1ccc(Cn2cccc(C(=O)Nc3ccc4c(c3)OCO4)c2=O)cc1,"0.112 µM [falling, full curve, poor fit]","0.0178 µM [falling, partial curve, poor fit]"
C[C@]12C/C(=C/O)C(=O)C[C@@H]1CC[C@@H]1[C@@H]2CC[C@@]2(C)[C@H]1CC[C@]2(C)O,"25.1 µM [rising, single point]","12.6 µM [rising, single point]"
O=P(O)(O)C(Cl)(Cl)P(=O)(O)O,,"0.0891 µM [falling, full curve]"
C[C@@]12CCC(=O)C=C1C=C[C@H]1[C@H]3CC[C@](O)(CCC(=O)O)[C@]3(C)CC[C@@H]12,"14.1 µM [falling, single point]","14.1 µM [falling, partial curve, poor fit]"
CCOC(=O)C(O)(c1ccc(N(C)C(=O)c2ccc(Cl)c(Cl)c2)cc1)C(F)(F)F (stereo not given),"20 µM [rising, single point]",
CCOC(=O)c1ccc(NC(=O)CSc2cc(=O)n(CC)c3ccccc23)cc1,"0.0126 µM [falling, full curve, poor fit]","0.0224 µM [falling, full curve]"
